# Assay results: article PMC11793105, “A kalihinol analog disrupts apicoplast function and vesicular trafficking in P. falciparum malaria” (Science (New York, N.Y.), 2024)
# Columns and labels:
# [1] = test system: P. falciparum whole protein extracts; assay: Thermal proteome profiling (TPP), proteome-wide; assay type: binding, Plasmodium falciparum
# [2] = test system: SEC13 (PF3D7_1230700); assay: Thermal proteome profiling: SEC13; assay type: binding, Plasmodium falciparum
# [3] = test system: Endoplasmin (PF3D7_1222300); assay: Thermal proteome profiling: endoplasmin; assay type: binding, Plasmodium falciparum
# [4] = test system: P. falciparum 3D7 parasites; assay: In vitro resistance selection and whole-genome sequencing variant analysis; assay type: cell-based, Plasmodium falciparum; settings: 10^8 cloned parasites, IC50 then gradually escalating dosage
compound,measurement,setting,value
[C-]#[N+][C@]1(C)CC[C@H]2[C@@H]([C@@H](C(C)C)CC[C@]2(C)[N+]#[C-])[C@H]1O [MED6-189],DTm = Tm_Chahine-Med6_AVG - Tm_Chahine-DMSO_AVG,[1]; LytB (PF3D7_0104400),0.84
same,Tm_Chahine-Med6_AVG,[1]; LytB (PF3D7_0104400),49.5906
same,DTm = Tm_Chahine-Med6_AVG - Tm_Chahine-DMSO_AVG,[1]; PIESP15 (PF3D7_0103900),0.29
same,Tm_Chahine-Med6_AVG,[1]; PIESP15 (PF3D7_0103900),50.7511
same,DTm = Tm_Chahine-Med6_AVG - Tm_Chahine-DMSO_AVG,[1]; RESA (PF3D7_0102200),1.48
same,Tm_Chahine-Med6_AVG,[1]; RESA (PF3D7_0102200),46.7422
same,temperature up to which SEC13 is stabilized (previously observed melting temperature),"[2]; lysate with MED6-189, compared with DMSO profile of Dziekan et al.",> 49 °C
same,thermal denaturation of SEC13,"[2]; with MED6-189, over a 36°C range of temperatures (37-73°C)",no denaturation of SEC13 was observed
same,Tm of Endoplasmin,"[3]; 100μM Med6-189, replicates r1 and r2 (DMSO 43.97 and 44.03)",44.81 °C and 44.43 °C
same,stability of endoplasmin in TPP,[3]; MED6-189 vs DMSO controls,no change in stability
same,time of continuous in vitro drug pressure until tolerant parasites emerged,[4],~ 36 months

# Values joined by “and” are separate entries in the source; they are usually repeats but may differ in a detail not shown here. Equal values may be shown once.
